Assay results published in paper PMC10132971.
The exact form of at least one protein or probe is not confirmed. The direction of at least one scale is not stated here.

Assays:
[1] = tested on: Smc5/6 hexamer EQ mutant E1015Q,E1048Q (Saccharomyces cerevisiae (W303)); test: mass photometry; conditions: 2.5 mM ATP, DNA-enhanced dimer fraction, indirect; Mass photometry: 40 mM Tris-HCl pH 7.5, 100 mM K-glutamate, 7.5 mM MgCl2, 30 C, 10 nM protein, 5 nM DNA; single-molecule: 2 nM Smc5/6; recombinant protein; protein details: TAP purification
[2] = tested on: Smc5/6 hexamer (lacking Nse5/6) (Saccharomyces cerevisiae (W303)); test: mass photometry; conditions: Mass photometry: 40 mM Tris-HCl pH 7.5, 100 mM K-glutamate, 7.5 mM MgCl2, 30 C, 10 nM protein, 5 nM DNA, single-molecule: 2 nM Smc5/6, recombinant protein

## TGGTTTTTATATGTTTTGTTATGTATTGTTTATTTTCCCTTTAATTTTAGGATATGAAAACAAGAATTTATCTGGTTTTTATATGTTTTGTTATGTATTGTTTATTTTCCCTTTAATTTTAGGATATGAAAACAAGAATTTATCTGGTTTTTATATGTTTTGTTATGTATTGTTTATTTTCCCTTTAATTTTAGGATATG (double strand) [200 bp linear dsDNA]
[1]
  binding signal (% dimer fraction): 43
[2]; 2.5 mM ATP, dimer fraction similar to DNA-unbound state, indirect
  binding signal (% dimer fraction): 2
[2]; no ATP, DNA-enhanced dimerization (over tenfold), indirect read-out of DNA binding
  binding signal (% dimer fraction): 40
